Source: PMC4390341
These are yes or no findings as the source states them, for the method shown. In cells and extracts the contact can be indirect. Some results given as binding are weak or reduced against the parent protein; the word gives no strength. Sequences can lack the tags named with a protein.

By UniProt entry, the sequences of proteins in these tests, tags left out.
UniProt Q9H1Y0: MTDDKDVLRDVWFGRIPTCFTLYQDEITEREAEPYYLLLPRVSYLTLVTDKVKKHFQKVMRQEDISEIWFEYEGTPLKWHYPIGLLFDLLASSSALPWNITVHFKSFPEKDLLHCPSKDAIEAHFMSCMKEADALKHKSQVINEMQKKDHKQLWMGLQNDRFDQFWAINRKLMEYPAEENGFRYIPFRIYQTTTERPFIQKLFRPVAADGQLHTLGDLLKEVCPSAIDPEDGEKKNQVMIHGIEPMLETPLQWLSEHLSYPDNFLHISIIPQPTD
UniProt Q9H0Y0: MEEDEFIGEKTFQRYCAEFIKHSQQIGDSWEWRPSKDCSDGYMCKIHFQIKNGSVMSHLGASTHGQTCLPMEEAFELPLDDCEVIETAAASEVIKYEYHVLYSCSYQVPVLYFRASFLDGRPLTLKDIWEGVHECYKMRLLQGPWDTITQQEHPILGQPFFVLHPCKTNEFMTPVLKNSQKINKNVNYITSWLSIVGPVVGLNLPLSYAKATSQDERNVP

Assays:
HA-Atg5 (human) = HA-Atg5 (human) (UniProt Q9H1Y0); assay: co-IP; HeLa cells co-transfected with HA-Atg5 or HA-Atg10 and Myc-IRGM for 24 h, then CA16 infection (MOI = 2) for 12 h; IP with anti-HA antibody, WB with anti-HA and anti-Myc
HA-Atg10 (human) = HA-Atg10 (human) (UniProt Q9H0Y0); assay: as above

B1: Myc-IRGM (protein, UniProt A1A4Y4 1-181)
chain: MEAMNVEKASADGNLPEVISNIKETLKIVSRTPVNITMAGDSGNGMSTFISALRNTGHEGKASPPTELVKATQRCASYFSSHFSNVVLWDLPGTGSATTTLENYLMEMQFNRYDFIMVASAQFSMNHVMLAKTAEDMGKKFYIVWTKLDMDLSTGALPEVQLLQIRENVLENLQKERVCEY
In the case of B1, the binding (HA-Atg5 (human)) is reported as “binds” and the binding (HA-Atg10 (human)) is reported as “binds”.
